These are yes or no findings as the source states them, for the method shown. Binding seen in cells or lysates may run through a third protein. Some binding calls cover weakened binding; strength is not graded here.
Molecular target: shootin1b (endogenous, mouse dendritic cells) (mouse (endogenous in bone marrow-derived dendritic cells)) (UniProt Q8K2Q9)
Test: co-IP; lysates (NP40-Triton lysis buffer) of mouse dendritic cells treated with 0, 20 or 200 ng/mL CCL19 for 30 min; anti-shootin1 antibody or isotype control IgG, protein G-sepharose; immunoblot with anti-shootin1b, anti-L1, anti-cortactin

By UniProt entry, the sequences of proteins in these tests, tags left out. Residues count along the entry.
UniProt Q8K2Q9: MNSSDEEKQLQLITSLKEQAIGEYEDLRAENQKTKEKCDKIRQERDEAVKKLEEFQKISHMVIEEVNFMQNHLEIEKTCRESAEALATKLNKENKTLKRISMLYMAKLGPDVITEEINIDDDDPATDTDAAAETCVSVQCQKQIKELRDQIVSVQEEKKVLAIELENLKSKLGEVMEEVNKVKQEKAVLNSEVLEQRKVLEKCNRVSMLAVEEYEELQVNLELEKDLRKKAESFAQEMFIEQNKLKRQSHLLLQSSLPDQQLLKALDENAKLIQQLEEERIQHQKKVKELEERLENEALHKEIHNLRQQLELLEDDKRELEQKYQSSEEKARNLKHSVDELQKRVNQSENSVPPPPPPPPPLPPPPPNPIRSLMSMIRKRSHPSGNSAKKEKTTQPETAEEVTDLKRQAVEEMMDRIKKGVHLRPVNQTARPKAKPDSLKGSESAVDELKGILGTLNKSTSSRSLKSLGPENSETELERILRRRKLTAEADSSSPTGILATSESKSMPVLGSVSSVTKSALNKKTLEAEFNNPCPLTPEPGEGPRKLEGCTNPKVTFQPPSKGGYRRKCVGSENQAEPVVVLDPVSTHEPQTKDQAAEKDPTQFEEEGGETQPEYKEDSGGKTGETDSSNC
UniProt P11627, residues 20-1260: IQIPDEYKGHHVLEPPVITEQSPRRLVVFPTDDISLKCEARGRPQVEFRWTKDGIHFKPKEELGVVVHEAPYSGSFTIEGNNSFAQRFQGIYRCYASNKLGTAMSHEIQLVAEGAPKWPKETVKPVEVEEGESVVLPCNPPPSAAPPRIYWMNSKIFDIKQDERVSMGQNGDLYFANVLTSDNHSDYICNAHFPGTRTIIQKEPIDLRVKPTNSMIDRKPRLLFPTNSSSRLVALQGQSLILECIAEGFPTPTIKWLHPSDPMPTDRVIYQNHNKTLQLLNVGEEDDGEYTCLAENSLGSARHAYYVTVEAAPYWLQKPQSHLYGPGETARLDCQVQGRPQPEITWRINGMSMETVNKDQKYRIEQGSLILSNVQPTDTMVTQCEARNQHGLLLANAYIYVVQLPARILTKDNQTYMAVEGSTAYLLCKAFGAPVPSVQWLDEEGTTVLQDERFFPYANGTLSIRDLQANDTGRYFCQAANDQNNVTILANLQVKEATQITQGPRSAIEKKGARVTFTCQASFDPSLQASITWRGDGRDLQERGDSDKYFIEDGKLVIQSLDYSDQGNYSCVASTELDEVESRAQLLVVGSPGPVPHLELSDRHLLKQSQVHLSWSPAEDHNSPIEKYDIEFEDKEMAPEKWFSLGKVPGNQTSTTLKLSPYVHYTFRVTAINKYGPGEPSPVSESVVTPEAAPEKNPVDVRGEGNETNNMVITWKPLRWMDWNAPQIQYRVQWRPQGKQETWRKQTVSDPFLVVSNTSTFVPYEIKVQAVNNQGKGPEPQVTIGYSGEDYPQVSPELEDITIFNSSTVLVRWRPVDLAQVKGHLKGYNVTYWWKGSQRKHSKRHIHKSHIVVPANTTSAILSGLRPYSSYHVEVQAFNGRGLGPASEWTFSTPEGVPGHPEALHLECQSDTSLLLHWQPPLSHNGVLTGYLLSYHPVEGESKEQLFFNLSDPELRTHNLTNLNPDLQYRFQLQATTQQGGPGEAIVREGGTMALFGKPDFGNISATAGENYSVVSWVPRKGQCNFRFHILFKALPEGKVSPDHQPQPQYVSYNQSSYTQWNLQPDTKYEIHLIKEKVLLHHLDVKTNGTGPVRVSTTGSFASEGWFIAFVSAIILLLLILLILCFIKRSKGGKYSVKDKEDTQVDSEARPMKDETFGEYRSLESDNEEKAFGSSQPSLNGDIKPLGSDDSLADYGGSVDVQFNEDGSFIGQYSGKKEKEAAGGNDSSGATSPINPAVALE
UniProt Q60598: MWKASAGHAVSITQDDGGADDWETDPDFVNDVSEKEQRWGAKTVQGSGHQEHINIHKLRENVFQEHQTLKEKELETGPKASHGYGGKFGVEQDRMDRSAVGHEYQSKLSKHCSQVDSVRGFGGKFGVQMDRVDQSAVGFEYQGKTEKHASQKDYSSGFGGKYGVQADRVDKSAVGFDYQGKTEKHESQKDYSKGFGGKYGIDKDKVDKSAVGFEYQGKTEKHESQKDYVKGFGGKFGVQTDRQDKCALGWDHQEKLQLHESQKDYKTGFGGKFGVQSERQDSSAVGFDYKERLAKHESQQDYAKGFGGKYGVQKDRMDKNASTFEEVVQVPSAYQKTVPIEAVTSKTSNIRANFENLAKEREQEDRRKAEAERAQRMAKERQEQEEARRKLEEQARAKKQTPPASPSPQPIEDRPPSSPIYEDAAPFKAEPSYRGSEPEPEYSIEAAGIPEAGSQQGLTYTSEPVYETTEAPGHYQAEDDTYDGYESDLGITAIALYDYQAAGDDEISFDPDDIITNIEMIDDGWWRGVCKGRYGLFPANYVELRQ

| Substance | binding |
| --- | --- |
| L1 (endogenous, mouse dendritic cells) (from UniProt P11627 20-1260) | binds |
| cortactin (endogenous, mouse dendritic cells) (from UniProt Q60598 1-546) | binds |

Source: article PMC12533206
